# Measurements reported in PubChem BioAssay AID1259405 (NCATS, 2018).
# Assay: 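Mouse-designed siRNAs used to find CHO productivity engineering targets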 (primary screen)
# Cells: Chinese hamster CHO-K1 ovary cells with stable secreted eGFP expression
# Knock-down reagent: single siRNA against mouse genes, 0.8 pmol siRNA per well (2 µl of 400 nM stock)
# Timing: 3 days
# Read-out: 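Percent of the per-plate non-targeting control median for intracellular GFP per well by laser scanning cytometry and for cell viability by ATP luminescence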
# Reading the numbers: GFP, % of control: higher = more GFP per well, higher productivity; viability (ATP), % of control: higher = more viable cells (more ATP)
# Active means: 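a knock-down is called active if GFP reaches 120% or more of non-targeting control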
# Here is a random part of about 50,000 reagents tested. About 4,000 of all reagents (8%) count as active. 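Mouse siRNA library applied to hamster cells; one well for each siRNA.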 A number with no mark means an inactive call. Reagents against one gene are numbered here.
target,reagent no.,"GFP, % of control","viability (ATP), % of control"
Or5b102 (olfactory receptor family 5 subfamily B member 102),1,83.8,47.5
Or5b102 (olfactory receptor family 5 subfamily B member 102),2,98,94.1
Or5b102 (olfactory receptor family 5 subfamily B member 102),3,50.6,79.1
Mppe1 (metallophosphoesterase 1),1,75.8,97
Mppe1 (metallophosphoesterase 1),2,86.9,85.6
Mppe1 (metallophosphoesterase 1),3,66.5,74.3
"Rab34 (RAB34, member RAS oncogene family)",1,93.1,108
"Rab34 (RAB34, member RAS oncogene family)",2,140 (active),107
"Rab34 (RAB34, member RAS oncogene family)",3,34.3,42.4
"Zc2hc1c (zinc finger, C2HC-type containing 1C)",1,92.2,85.2
"Zc2hc1c (zinc finger, C2HC-type containing 1C)",2,90.8,59.5
"Zc2hc1c (zinc finger, C2HC-type containing 1C)",3,102,121
"Abcb9 (ATP-binding cassette, sub-family B member 9)",1,50.9,54.5
"Abcb9 (ATP-binding cassette, sub-family B member 9)",2,77.9,89.2
"Abcb9 (ATP-binding cassette, sub-family B member 9)",3,78.8,88.5
"Ssr1 (signal sequence receptor, alpha)",1,98.7,118
"Ssr1 (signal sequence receptor, alpha)",2,62.6,88.8
"Crk (Crk proto-oncogene, adaptor protein)",1,87.8,104
"Crk (Crk proto-oncogene, adaptor protein)",2,78.7,88.4
"Crk (Crk proto-oncogene, adaptor protein)",3,127 (active),147
"Gria4 (glutamate receptor, ionotropic, AMPA4 (alpha 4))",1,83.8,104
"Gria4 (glutamate receptor, ionotropic, AMPA4 (alpha 4))",2,38.8,65.9
"Gria4 (glutamate receptor, ionotropic, AMPA4 (alpha 4))",3,75.7,66.7
Or2n1c (olfactory receptor family 2 subfamily N member 1C),1,85.3,81
Or2n1c (olfactory receptor family 2 subfamily N member 1C),2,55.2,63
Or2n1c (olfactory receptor family 2 subfamily N member 1C),3,61.7,64.9
A630091E08Rik (RIKEN cDNA A630091E08 gene),1,69.8,59.4
A630091E08Rik (RIKEN cDNA A630091E08 gene),2,99.9,80.5
A630091E08Rik (RIKEN cDNA A630091E08 gene),3,84.6,99.6
Rpl13 (ribosomal protein L13),1,56.1,56.2
Rpl13 (ribosomal protein L13),2,95.9,67.2
Rpl13 (ribosomal protein L13),3,48.3,35.4
Arid3b (AT-rich interaction domain 3B),1,30.1,38
Arid3b (AT-rich interaction domain 3B),2,110,118
Slc2a1,1,72.4,70.3
Slc2a1,2,79.9,107
Slc2a1,3,75.9,100
Glyr1 (glyoxylate reductase 1 homolog (Arabidopsis)),1,94.9,117
Glyr1 (glyoxylate reductase 1 homolog (Arabidopsis)),2,108,103
4930522H14Rik (RIKEN cDNA 4930522H14 gene),1,93.7,77.3
4930522H14Rik (RIKEN cDNA 4930522H14 gene),2,45,35.7
4930522H14Rik (RIKEN cDNA 4930522H14 gene),3,68.6,80.6
Tram1 (translocating chain-associating membrane protein 1),1,63,50.6
Tram1 (translocating chain-associating membrane protein 1),2,95.6,102
Tram1 (translocating chain-associating membrane protein 1),3,81.8,66.3
Las1l (LAS1-like (S. cerevisiae)),1,72.3,88.3
Las1l (LAS1-like (S. cerevisiae)),2,71.6,98.1
Las1l (LAS1-like (S. cerevisiae)),3,63.2,109
Slc17a1,1,73.6,72.8
Slc17a1,2,85.4,69.5
Slc17a1,3,81.8,77.5
Unc79 (unc-79 homolog),1,61.9,78.7
Unc79 (unc-79 homolog),2,57.9,72.4
Unc79 (unc-79 homolog),3,137 (active),92.1
"Ap5m1 (adaptor-related protein complex 5, mu 1 subunit)",1,93,97.5
"Ap5m1 (adaptor-related protein complex 5, mu 1 subunit)",2,138 (active),95.9
"Ap5m1 (adaptor-related protein complex 5, mu 1 subunit)",3,67.2,76.4
Elobl (elongin B-like),1,151 (active),166
Elobl (elongin B-like),2,63.5,76.6
Elobl (elongin B-like),3,71.9,89.6
Hoxa10 (homeobox A10),1,69.5,95.9
Hoxa10 (homeobox A10),2,110,94.1
Hoxa10 (homeobox A10),3,105,88.4
Mthfd1l,1,132 (active),86.1
Mthfd1l,2,77.2,74.1
Mthfd1l,3,95.5,94.4
Dennd1a (DENN domain containing 1A),1,90.8,50.7
Dennd1a (DENN domain containing 1A),2,87.3,82
Dennd1a (DENN domain containing 1A),3,124 (active),131
Reg3d (regenerating islet-derived 3 delta),1,25.5,28.6
Reg3d (regenerating islet-derived 3 delta),2,170 (active),72.5
Reg3d (regenerating islet-derived 3 delta),3,43,62.8
Or13a21 (olfactory receptor family 13 subfamily A member 21),1,106,42.5
Or13a21 (olfactory receptor family 13 subfamily A member 21),2,69.2,95.8
Or13a21 (olfactory receptor family 13 subfamily A member 21),3,51,55.7
Ift172 (intraflagellar transport 172),1,61.2,71.3
Ift172 (intraflagellar transport 172),2,84.3,79.5
Ift172 (intraflagellar transport 172),3,68.2,78.9
Nudt2 (nudix hydrolase 2),1,64.3,62.8
Nudt2 (nudix hydrolase 2),2,24.4,45.5
Nudt2 (nudix hydrolase 2),3,108,55.6
Plp2 (proteolipid protein 2),1,69.4,37.7
Plp2 (proteolipid protein 2),2,143 (active),53.5
Plp2 (proteolipid protein 2),3,77.4,65.3
Dctn5 (dynactin 5),1,72,84.1
Dctn5 (dynactin 5),2,74,75.2
Dctn5 (dynactin 5),3,87,89.5
Frs3 (fibroblast growth factor receptor substrate 3),1,73.4,47.2
Frs3 (fibroblast growth factor receptor substrate 3),2,127 (active),83.4
Frs3 (fibroblast growth factor receptor substrate 3),3,114,85.2
"Igsf9 (immunoglobulin superfamily, member 9)",1,79,109
"Igsf9 (immunoglobulin superfamily, member 9)",2,93.2,79.6
"Igsf9 (immunoglobulin superfamily, member 9)",3,81.1,73.8
Dclre1b (DNA cross-link repair 1B),1,69.6,93.5
Dclre1b (DNA cross-link repair 1B),2,58.2,38.8
Dclre1b (DNA cross-link repair 1B),3,85.9,62.7
Anxa4 (annexin A4),1,75.8,103
Anxa4 (annexin A4),2,74.7,100
Anxa4 (annexin A4),3,58.1,98.9
"Sgcd (sarcoglycan, delta (dystrophin-associated glycoprotein))",1,119,100
"Sgcd (sarcoglycan, delta (dystrophin-associated glycoprotein))",2,150 (active),70.3
"Sgcd (sarcoglycan, delta (dystrophin-associated glycoprotein))",3,103,103
Tcf21 (transcription factor 21),1,79.5,97.2
Tcf21 (transcription factor 21),2,78.9,80.2
Tcf21 (transcription factor 21),3,104,89.7
Kirrel3 (kirre like nephrin family adhesion molecule 3),1,67.7,94.9
Kirrel3 (kirre like nephrin family adhesion molecule 3),2,90,60.7
Kirrel3 (kirre like nephrin family adhesion molecule 3),3,112,66.4

In a second layout: results already given
{"target":"Elobl (elongin B-like)","reagent no.":2,"GFP, % of control":63.5,"viability (ATP), % of control":76.6}
{"target":"Elobl (elongin B-like)","reagent no.":3,"GFP, % of control":71.9,"viability (ATP), % of control":89.6}
{"target":"Hoxa10 (homeobox A10)","reagent no.":1,"GFP, % of control":69.5,"viability (ATP), % of control":95.9}
{"target":"Hoxa10 (homeobox A10)","reagent no.":2,"GFP, % of control":110,"viability (ATP), % of control":94.1}
{"target":"Hoxa10 (homeobox A10)","reagent no.":3,"GFP, % of control":105,"viability (ATP), % of control":88.4}
{"target":"Mthfd1l","reagent no.":1,"GFP, % of control":"132 (active)","viability (ATP), % of control":86.1}
{"target":"Mthfd1l","reagent no.":2,"GFP, % of control":77.2,"viability (ATP), % of control":74.1}
